Measurements taken from patent US20240207236A1, “COMPOUND FOR PREVENTING OR TREATING DIABETES” (ONCOCROSS CO., LTD., priority 2021, published 2024).
For at least one compound, name, drawing or mass did not settle the structure.

Key:
Format in all cases: in vivo, mice (C57BL/6)
Details in all cases: positive control group, 2 mg/kg
[1] = Body weight of mice in STZ-induced insulin-resistant diabetes model
Protocol: (§1) STZ (Sigma-aldrich, S0130, 40 mg/kg b.w., in 0.1 M citrate buffer pH 4.5) was intraperitoneally administered to 9-week-old male mice (C57BL/6) once/1 day for 5 days to perform a first disease induction. After 7 weeks of the first induction, a second induction was performed using the same method as the first induction. For 5 days of an STZ administration period for the first induction, 10% sucrose was administered as drinking water. In addition, after 14 days of the second administration, blood sugar was confirmed to confirm the induction rate, and the induced animals were separated into groups. Experimental substances (R)-4-{(R)-1-[7-(3,4,5-trimethoxy-phenyl)-[1,6] naphthyridine-5-yloxy]-ethyl}pyrrolidine-2-one (BI-1002494) and cromolyn (OC-101) were administered orally into the stomach at 10 mL/kg using an oral administration syringe (sonde) before 16:00 daily for 12 weeks at a frequency of 7 days/week at doses shown in Table 1 below, respectively, and dexamethasone was orally administered as a positive control substance.

[2] = Feed intake of mice in STZ-induced insulin-resistant diabetes model
Protocol: as §1

[3] = test system: animal model of insulin-resistant diabetes; experiment: Blood sugar, tail vein blood, blood sugar meter, 4 h fasting
Protocol: (§2) STZ (Sigma-aldrich, S0130, 40 mg/kg b.w., in 0.1 M citrate buffer pH 4.5) was intraperitoneally administered to 9-week-old male mice (C57BL/6) once/1 day for 5 days to perform a first disease induction. After 7 weeks of the first induction, a second induction was performed using the same method as the first induction. For 5 days of an STZ administration period for the first induction, 10% sucrose was administered as drinking water. In addition, after 14 days of the second administration, blood sugar was confirmed to confirm the induction rate, and the induced animals were separated into groups. […]
Before disease induction, excluding week 9 of administration of experimental substances to mice in each group of Example 1 above, after 2 weeks after the first induction (based on a first administration date), and after 6 weeks and 2 weeks of the second induction (based on the first administration date), blood was collected from the tail vein and blood sugar was measured using a blood sugar meter (Accu-Check, Roche), and fasting was performed for 4 hours from 9:30 a.m. to 1:30 p.m.

[4] = test system: animal model of insulin-resistant diabetes; experiment: Blood biochemistry, automated analyzer, at end of observation
Protocol: as §2
(§3) After the observation period for mice of each group in Example 1 was terminated, all surviving animals were fasted in the same manner as when measuring blood sugar, and then anesthetized by inhaling isoflurane, and blood was collected from the abdominal vena cava through laparotomy. […] Thereafter, glucose, blood urea nitrogen (BUN), and creatinine were analyzed using an automated blood biochemistry analyzer (Hitachi 3100, Hitachi Co. Ltd., Japan). Indoxyl sulfate (a substance that was mainly produced in the intestines to cause kidney damage, and a substance that caused end-stage renal failure by advancing kidney function damage in patients with renal failure during hemodialysis) was analyzed using LC MS/MS. […]

[5] = test system: animal model of insulin-resistant diabetes; experiment: Blood insulin (Mouse Insulin ELISA) and HOMA-IR
Protocol: as §2, §3

[6] = test system: animal model of insulin-resistant diabetes; experiment: Blood indoxyl sulfate by LC MS/MS
Protocol: as §2, §3

## C[C@@H]1C[C@H]2[C@@H]3CCC4=CC(=O)C=C[C@]4(C)[C@@]3(F)[C@@H](O)C[C@]2(C)[C@@]1(O)C(=O)CO [Dexamethasone, reference compound]
[1]
  body weight, statistical comparison: no statistically significant difference
[2]
  feed intake compared to the normal control group: no statistically significant difference
[3]; after week 6 of administration
  blood sugar compared with the normal control group: tended to be decreased
[3]; at week 8 of administration
  blood sugar compared with the normal control group: decreased statistically significantly
[4]
  GLU compared to the disease control group: decreased statistically significantly
[5]
  HOMA-IR compared to the disease control group: decreased statistically significantly
[6]
  Indoxyl sulfate compared to the disease control group: increased statistically significantly
